Taken from: PubChem BioAssay AID686938 (Drosophila RNAi Screening Center, 2013)
The deposit covers about 23,000 reagents; this is an unselected part of those with a known target gene and a result. Over the whole deposit, 75 (0.33%) were called active. 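Raw plate signals without normalisation; calls rest on plate z-scores that were not deposited; ratio present for only 364 wells.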 A plus sign joins genes that one reagent is predicted to hit. The record does not give: the dose of the treatment.

- Test: 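Knock-downs reducing store-operated calcium influx in Drosophila cells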 (primary screen)
- Cells: Drosophila S2R+ cells
- Reagents: long dsRNA against Drosophila genes, about 0.25 µg dsRNA per well, roughly 10,000 cells
- Timing: 5 days of knock-down before the calcium assay
- Challenge: thapsigargin (SERCA pump blocker) to empty calcium stores; entry signal taken 4 min after adding it
- Measurement: 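Per-well fluo-4 fluorescence in two replicates, unnormalised, measured in resting cells and 4 min after store depletion by the SERCA blocker thapsigargin; ratio of the two present in few wells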
- Reading the numbers: calcium entry signal: higher = stronger calcium signal after store depletion; resting calcium signal: higher = higher resting calcium signal
- Active means: 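Hit if the duplicate-averaged plate z-score for entry over resting signal is under −3; wells with weak total dye signal (Fmax z < −2) or more than 5 off-targets removed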
- Meaning of the calls: active = strongly reduced calcium entry; inactive = no strong reduction

no.	Target gene	DRSC id	calcium entry signal, replicate 1 (fluorescence units)	calcium entry signal, replicate 2 (fluorescence units)	resting calcium signal, replicate 1 (fluorescence units)	resting calcium signal, replicate 2 (fluorescence units)	Call
1	CG12446	DRSC20618	4.57e7	5.25e7	2.32e7	2.12e7	inactive
2	asRNA:CR43476 + CG42534	DRSC23246	2.94e7	3.17e7	1.78e7	1.54e7	inactive
3	Naa30B	DRSC08245	3.66e7	4.16e7	1.86e7	1.96e7	inactive
4	Indy-2 + CG33934	DRSC15685	3.33e7	3.07e7	1.57e7	1.30e7	inactive
5	Indy-2 + CG33934	DRSC15686	1.81e7	3.04e7	2.49e7	1.28e7	inactive
6	kat80	DRSC20344	4.05e7	2.01e7	1.98e7	1.01e7	inactive
7	kat80	DRSC20345	4.38e7	2.45e7	2.18e7	1.17e7	inactive
8	CG12589	DRSC12215	2.35e7	4.99e7	1.09e7	1.96e7	inactive
9	in	DRSC11888	2.69e7	4.68e7	1.31e7	1.81e7	inactive
10	CG32572	DRSC19525	3.36e7	3.17e7	1.69e7	1.50e7	inactive
11	CG32572	DRSC19526	3.64e7	2.84e7	1.88e7	1.41e7	inactive
12	betaggt-I	DRSC03494	4.34e7	3.72e7	2.04e7	1.63e7	inactive

Part of the list above, showing only “calcium entry signal, replicate 2 (fluorescence units)”:
CG12589 [DRSC12215]: 4.99e7
in [DRSC11888]: 4.68e7

The results go on:
no.	Target gene	DRSC id	calcium entry signal, replicate 1 (fluorescence units)	calcium entry signal, replicate 2 (fluorescence units)	resting calcium signal, replicate 1 (fluorescence units)	resting calcium signal, replicate 2 (fluorescence units)	Call
13	CG42362 + CG42363	DRSC04265	2.48e7		1.29e7		inactive
14	Dnaaf4	DRSC02405	3.25e7	5.30e7	1.60e7	2.14e7	inactive
15	Pgant2	DRSC00587	3.21e7	3.17e7	1.54e7	1.45e7	inactive
16	PIG-U	DRSC02193	4.90e7		2.26e7		inactive
17	IFT46	DRSC02462	2.77e7	4.54e7	1.53e7	1.95e7	inactive
18	dnr1	DRSC03948	2.73e7	5.95e7	1.23e7	2.07e7	inactive
19	dnr1	DRSC04122	3.38e7	3.01e7	1.76e7	1.54e7	inactive
20	CG3739	DRSC15510	3.28e7	3.64e7	4.33e7	1.66e7	inactive
21	CG17261	DRSC00498	2.56e7	1.99e7	1.40e7	1.14e7	inactive
22	CG5276	DRSC15759	3.63e7	3.97e7	1.80e7	2.06e7	inactive
23	CG31954	DRSC00580	4.26e7		2.58e7		inactive
24	gem	DRSC06093	4.59e7	4.69e7	1.96e7	2.13e7	inactive
25	gem	DRSC06847	2.72e7	3.79e7	1.32e7	1.58e7	inactive
